Assay results from the supplement of paper PMC5949888.
Most values lie at the floor of the assay. Slopes are relative: functional sequences can read slightly below zero.

What follows are substances tested on Saccharomyces cerevisiae PS128 hsf1 delta, HSF1(1-493) fusion (assay: growth estimate (transactivation domain function in HSF1 fusion, heat-shock survival) (a.u. (slope of normalised read count over time)); higher = stronger growth at 37°C, i.e. more transactivation activity). Conditions: library: random library.
Description: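 Random 60-nt DNA library encoding peptides of up to 20 aa, fused to the C-terminus of yeast HSF1 residues 1-493 (C-terminal TAD deleted) and expressed from the native HSF1 promoter on a CEN plasmid in hsf1-deleted S. cerevisiae PS128. Cells were selected at 37°C on -trp 5-FOA plates for 0, 2, 4, 6 and 8 days and amplicons were sequenced. Growth estimate is the slope of a robust linear fit of total-sum-normalised read counts (normalised to the first time point) over time, using at least 2 replicates. Sequences are classed functional (TAD activity) above a threshold of -0.13, set from stop-codon control sequences.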

Row | Substance | growth estimate
1 | TSGTQVREHVQIDVGTGT | < -0.25
2 | LFSSAVDTRRARATLSITIA | < -0.25
3 | RAKRCAASEVVVRIFVLTST | -0.243
4 | LLLSGRWTSKLVSRGYQRDP | < -0.25
5 | TAI | < -0.25
6 | SDPSYGEPFGVFYFC | -0.101
7 | SYAYVPAYDSRHAPPEWS | < -0.25
8 | GWGEEN | < -0.25
9 | WHVCSILCQWNSNLVH | < -0.25
10 | RRCIVSGSSSSEVPAVGARQ | < -0.25
11 | SCEICCGEEKYRGLHLW | < -0.25
12 | QFQTRFEKAVWKYM | -0.246
13 | SASYLRVKCRFGRRSHVSST | < -0.25
14 | SFVVCRNRGTETL | < -0.25
15 | LHAN | < -0.25
16 | LPRSYTVGASLELMS | < -0.25
17 | PPMLPSQGVTIIEFEVVSVG | < -0.25
18 | VLGPVNRN | < -0.25
19 | AARLSAACCRVITGDVS | < -0.25
20 | QLSPGVKCCELAKVGIV | < -0.25
21 | WGVDLHRQYGLSQGLVTVLL | < -0.25
22 | GEYQRGLLYSPADPTRNHSG | < -0.25
23 | CASNYTGLDAVT | < -0.25
24 | EKATPWRQ | < -0.25

Row | Substance | growth estimate
25 | YCMGKSPGFGGWQPTPAGWP | < -0.25
26 | VIKGRLANLQDRAVLPGDTS | < -0.25
27 | LRPVRLVTREFCQRKALHVE | < -0.25
28 | DSLCFPSYRMLMYDEMKFLR | < -0.25
29 | ITDVGY | < -0.25
30 | YGAARTGLSYRCEERDRPVQ | < -0.25
31 | LVPLCLYMHEANN | < -0.25
32 | GDAPLRILVTRLLLGNACMG | < -0.25
33 | LKLDSR | < -0.25
34 | PWNDYAVRQRDHWSAVGVAF | < -0.25
35 | WKYVYEPCGPRRLGRGAFCR | < -0.25
36 | RVRCEHGAFSGEVIQRDCGI | < -0.25
37 | GTCLPESFWAHAARSDRSGS | < -0.25
38 | GARVKHTRTASRFFMSRSSG | < -0.25
39 | YGGEPHARRRGLCHVARA | < -0.25
40 | GKSRGPSTSPPIRGSNSPHG | < -0.25
41 | PLNIEAMFSLWVSGDGPAHV | < -0.25
42 | SQCIICCSGG | < -0.25
43 | GKRLVRR | < -0.25
44 | EGKHFTSARGDVRPRDTAIH | < -0.25
45 | LTVSS | < -0.25
46 | WLGFSIRPFIWTFLF | < -0.25
47 | RDDSRCEP | < -0.25
48 | RNK | < -0.25

Row | Substance | growth estimate
49 | KFKIWN | < -0.25
50 | QIGAASRKKDSRIP | < -0.25
51 | GPKRASMGGSGGVLRYDTRV | < -0.25
52 | ACCKPAETESLKLDATGSLE | < -0.25
53 | GMGTDRLGVRDTSLETRSRG | < -0.25
54 | PQQELTGARILTFRASTPVP | < -0.25
55 | SLRHHIKRQELLKALNAIRD | < -0.25
56 | PKASFKVWGIRLRTTIHQLG | < -0.25
57 | IRGRALLEWQ | < -0.25
58 | LFGIRREGKCSSGMAPVLCH | < -0.25
59 | RTALISA | < -0.25
60 | PCVCPGRVSLDHSSRYVSVS | < -0.25
61 | IAGGSTRHKLR | < -0.25
62 | DGGCGTR | < -0.25
63 | WGPRD | -0.167
64 | VWSRSCTQRAARLSGGRQGG | < -0.25
65 | TYCGWGSAISPTGSESATLG | < -0.25
66 | ETLSQSTDTLLFRGPG | < -0.25
67 | ERNREDVGVPRGYRLPMLDA | < -0.25
68 | IKLAAKRISNQGRASWLELT | < -0.25
69 | SLASDSDPL | < -0.25
70 | RTSQTHSL | < -0.25
71 | ICATLRTILG | < -0.25
72 | LYRCGRLKVLLSVGTGTHKV | < -0.25

Row | Substance | growth estimate
73 | GKRGSFCFTIRDRALVTGRR | < -0.25
74 | WIR | < -0.25
75 | GRSARAKASGDLYAVSPHRV | < -0.25
76 | SVRKLR | < -0.25
77 | THLVLFLRLSPGRVWVTPCH | < -0.25
78 | GIAPTEIFDKGVRDIRVFYG | < -0.25
79 | HGSLSRVYVGQVDN | < -0.25
80 | EHDWVPGNIRSLPQIILQTM | < -0.25
81 | SRVDRVFRLSDMSIRLERYQ | < -0.25
82 | CIKGPGGVTDTRDNS | < -0.25
83 | IKTGTVGSLRRTRGNTRGLL | < -0.25
84 | LGVVSVNLLSRPLSAPAWQN | < -0.25
85 | EPLYREQSWSGMRGVDLRYL | < -0.25
86 | VCTDSREKKRGGPLDPRK | -0.243
87 | KLGKCKIRESCFFFIFPVPG | < -0.25
88 | SRSGLRRSLMCKQKEIARQL | < -0.25
89 | PASMTIKSSAQTNGALVHDS | -0.248
90 | SRRGHTVTAAWAWW | < -0.25
91 | VNIMAPVRQRQCVAS | < -0.25
92 | EAR | < -0.25
93 | SRIFR | -0.243
94 | LLGLVSWWGGMFMTPPRKIT | < -0.25
95 | ALARPVY | < -0.25
96 | SYFRLPCVWFRD | < -0.25

Row | Substance | growth estimate
97 | CKEMMCRARRDIDGKEIGLC | < -0.25
98 | WGQRERGLARAMVFLIQGLQ | < -0.25
99 | EFCT | < -0.25
100 | QLGTTSACDYHTHGGSARLP | -0.231
101 | RCPPHLRSQWEKLCVYGKTT | < -0.25
102 | SEETMLYFANRDRLQLPEWR | < -0.25
103 | EYPCAGRSAMILAQS | < -0.25
104 | KGFGPREPDETSPEQCEQTI | < -0.25
105 | PDHRSYG | < -0.25
106 | VAGPLRGNYARTSVCDRRQD | < -0.25
107 | TPVRKRWEYVYCEVIILVLR | < -0.25
108 | VRSEAGRPKRGLGSTS | < -0.25
109 | SHICMGRAARQT | < -0.25
110 | GSCPTTVFA | < -0.25
111 | RIASGTKFGPLLVRLETCHD | < -0.25
112 | DHHIVLERLEAHPAYFGIVL | < -0.25
113 | RVMAIGWAGWATRVGGGSAR | < -0.25
114 | HWGGRRI | < -0.253
115 | TVLANITHRHELLHFGIYPV | < -0.25
116 | RTPSSVSAALR | < -0.25
117 | WLKLM | < -0.25
118 | QSGSTDVLQLGILVRLDPAS | < -0.25
119 | TIEFSVKYTCLPPHSVVVSC | < -0.25
120 | DGAIWFGNRLPLESHRVIRV | < -0.25

Row | Substance | growth estimate
121 | TLLTV | < -0.25
122 | FAERRRRLRPGRWPVEARKR | < -0.25
123 | SVKCQ | < -0.25
124 | IQGPLAELRCTANSWIFHVE | < -0.25
125 | RSSVVSIRTRRTVPW | < -0.253
126 | WNRSTILTAQIPAEPTPFCR | < -0.25
127 | RTCSCRFKPLG | < -0.25
128 | WSSGGLPSVHVRFKRCTSLR | < -0.25
129 | KYRF | < -0.25
130 | NDNSRSDYASDVADVRNRPT | < -0.25
131 | EQESDQWKGWGRLIPTCHVS | < -0.25
132 | QSMKS | < -0.25
133 | VLPA | < -0.25
134 | MEVLDIKLCRGIIGTQRSTR | -0.246
135 | RHLRGFSKGGCPTIVPLRMC | < -0.25
136 | RVSTPT | < -0.25
137 | WEDLCAA | < -0.25
138 | VTGLILYKMKT | < -0.25
139 | LYM | < -0.25
140 | TALNTAYDCTRLRKVVNVGE | < -0.25
141 | PYRSLTFAQNVLLAKVYREQ | < -0.25
142 | CHRVI | < -0.25
143 | GTDCHYKRTLILSGYD | < -0.25
144 | QWGRY | < -0.25

Seven entries picked at random from the list so far:
Row | Substance | growth estimate
143 | GTDCHYKRTLILSGYD | < -0.25
130 | NDNSRSDYASDVADVRNRPT | < -0.25
121 | TLLTV | < -0.25
124 | IQGPLAELRCTANSWIFHVE | < -0.25
138 | VTGLILYKMKT | < -0.25
125 | RSSVVSIRTRRTVPW | < -0.253
123 | SVKCQ | < -0.25

(list continues)

Row | Substance | growth estimate
145 | HVAYYPGSWLEVKFYPFGIA | < -0.25
146 | YRQPWFVVR | < -0.25
147 | QALKGNYLVTASWSYHD | < -0.25
148 | ICSRVWSHQMVEGGRAY | < -0.25
149 | AEKALMGQVMSFTEDEAGPK | < -0.25
150 | GPLP | < -0.25
151 | PPGPNLHAQ | < -0.25
152 | LQQYRMIGRPETSAETQGY | < -0.25
153 | GRTLACVLL | < -0.25
154 | MHVARALLLLEQEKGRSTLL | < -0.25
155 | VYISGALTVCRLPGW | < -0.25
156 | ERW | < -0.25
157 | ESAGLVSR | < -0.25
158 | VISEVLTKEKGQVQIV | < -0.25
159 | AQQ | < -0.25
160 | GRIIPYIIKTTESKRRMRVN | < -0.25
161 | RGRPVGRG | < -0.25
162 | KQEKGVTGCDQQYGISMQTH | < -0.25
163 | SPLCL | < -0.25
164 | LGRINRERWVVTDRSDGCG | < -0.25
165 | QPQFAKVSYLVT | < -0.25
166 | SFSLSDSSDLPSFKSRLPDV | -0.246
167 | YELALVP | < -0.25
168 | FAGVITVKGLKPHKIWAAPA | < -0.25

Row | Substance | growth estimate
169 | SHTCKTRSHMLNSDKRVNRQ | < -0.25
170 | RCDPVNWNGEVVSLFRREGA | < -0.25
171 | CMNRAWGITRARLVLFGSES | < -0.25
172 | MSSTRPLALGYNQSSMVVYP | < -0.25
173 | NWACPTSVLIQHRRINKSLS | < -0.25
174 | FNLPPISRTGR | < -0.25
175 | LRLGHKLSGGIRLDKYGGPI | < -0.25
176 | SCRIGV | < -0.25
177 | SSVSIGPII | -0.246
178 | PVERAIRR | < -0.25
179 | PCATSVGSQFHVRQRMPKL | -0.2
180 | CRY | < -0.25
181 | LLVESRRTRSAGPVLCAEQV | < -0.25
182 | RRKRFVLALSRVKRYSSASA | < -0.25
183 | SECGRVYSSADSVSPVSTNG | < -0.25
184 | ETAGECRMLRFRLRSPNRYY | < -0.25
185 | GRAGSASAIGSPAYAS | < -0.25
186 | LAMCRKYRLSFR | < -0.25
187 | ELI | < -0.25
188 | ARDKYIDALARGVLLYDERT | < -0.25
189 | TLYGLQCDPRTRERLINLLH | -0.197

At a glance, part of the list above:
Row | Substance | growth estimate
44 | EGKHFTSARGDVRPRDTAIH | < -0.25
45 | LTVSS | < -0.25
46 | WLGFSIRPFIWTFLF | < -0.25
47 | RDDSRCEP | < -0.25
48 | RNK | < -0.25
